Data reported in article PMC4917820, “Structural basis for autoinhibition and its relief of MOB1 in the Hippo pathway” (Scientific Reports, 2016).
Numbering of substitutions follows the chain as printed. These are yes or no findings as the source states them, for the method shown. Binding calls can cover weak binding; strength is not graded here. For some of these results: Sequences can lack the tags named with a protein.

Columns and labels:
[1] = target: T1, N-terminal truncated MOB1B (33-216) (mouse, UniProt Q8BPB0 33-216); test: AUC; sedimentation velocity, 20 °C, 19 μM protein, 20 mM Tris-HCl (pH 7.5), 0.1 M NaCl, scanned at 280 nm; both purified
T1 construct: MOB1B, mouse, residues 33-216; also called N-terminal 32-residue truncated form; N-truncated MOB1B; source: E. coli, purified (Glutathione Sepharose 4B, HRV 3C digestion, HiTrap Q gradient, Superdex 75pg); not shown: GST, N-terminal, cleaved
T1 sequence (looked up): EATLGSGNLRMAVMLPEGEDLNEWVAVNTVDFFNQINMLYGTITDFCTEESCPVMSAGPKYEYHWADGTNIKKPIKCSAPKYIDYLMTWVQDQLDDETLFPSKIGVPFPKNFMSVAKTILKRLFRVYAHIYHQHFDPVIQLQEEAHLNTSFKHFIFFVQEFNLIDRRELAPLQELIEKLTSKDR

[2] = target: T2, GST-MOB1B, double-mutant T12D/T35D full-length form (mouse) (UniProt Q8BPB0); test: pull-down; GST-MOB1B and LATS1 proteins (40 μM) mixed 1:1 in 20 mM Tris-HCl (pH 7.5), 0.3 M NaCl, 1 mM DTT, applied to Glutathione Sepharose 4B, washed at 4 °C, eluted with glutathione, SDS-PAGE with Coomassie blue, band intensities; both purified
T2 sequence: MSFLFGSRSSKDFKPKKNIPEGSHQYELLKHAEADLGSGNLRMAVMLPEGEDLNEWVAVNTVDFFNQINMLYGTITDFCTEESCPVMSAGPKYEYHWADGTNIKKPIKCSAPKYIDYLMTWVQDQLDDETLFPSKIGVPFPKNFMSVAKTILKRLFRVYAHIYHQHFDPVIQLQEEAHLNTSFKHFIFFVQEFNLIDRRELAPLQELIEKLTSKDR

[3] = target: T3, GST-N-terminal truncated MOB1B, N-terminal 21-residue truncated form (mouse) (UniProt Q8BPB0); test: as above
T3 sequence: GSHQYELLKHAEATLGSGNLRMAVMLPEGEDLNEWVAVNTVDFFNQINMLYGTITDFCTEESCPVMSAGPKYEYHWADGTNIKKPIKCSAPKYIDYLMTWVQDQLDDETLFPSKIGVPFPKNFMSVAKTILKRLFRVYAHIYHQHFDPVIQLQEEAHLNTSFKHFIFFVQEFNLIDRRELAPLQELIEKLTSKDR

[4] = target: T4, GST-N-terminal truncated MOB1B, N-terminal 16-residue truncated form (mouse) (UniProt Q8BPB0); test: as above
T4 sequence: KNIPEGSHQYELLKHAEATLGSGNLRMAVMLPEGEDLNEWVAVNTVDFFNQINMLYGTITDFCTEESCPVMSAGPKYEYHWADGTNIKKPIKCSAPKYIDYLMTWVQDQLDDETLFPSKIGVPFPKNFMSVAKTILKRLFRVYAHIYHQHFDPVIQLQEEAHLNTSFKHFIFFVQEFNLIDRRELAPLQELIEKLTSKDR

[5] = target: T5, GST-MOB1B, N-terminal 32-residue truncated form (33-216) (mouse) (UniProt Q8BPB0); test: as above
T5 sequence: T1 sequence (looked up)

[6] = target: T6, GST-MOB1B, wild-type full-length form (mouse) (UniProt Q8BPB0); test: as above
T6 sequence: T2 sequence with D12T, D35T

[7] = target: T7, GST-MOB1B with the single phosphomimetic substitution of Thr12 (mouse) (UniProt Q8BPB0); test: as above
T7 sequence: T2 sequence with D35T

With “NTR domain of LATS1 (limits not told for this experiment) (mouse) (domain or fragment)” the binding [1] was “binds”, the binding [2] was “binds” and the binding [3] was “binds”. The binding [4] was “binds”, the binding [5] was “binds” and the binding [6] was “binds weakly”. The binding [7] was “binds”.
